Reference: article PMC5667935
Results are given in words; binding and its absence hold for the method and conditions named. Some results given as binding are weak or reduced against the parent protein; the word gives no strength.

By UniProt entry, the sequences of proteins in these tests, tags left out. Residues count along the entry.
UniProt G3I8R9, residues 19-654: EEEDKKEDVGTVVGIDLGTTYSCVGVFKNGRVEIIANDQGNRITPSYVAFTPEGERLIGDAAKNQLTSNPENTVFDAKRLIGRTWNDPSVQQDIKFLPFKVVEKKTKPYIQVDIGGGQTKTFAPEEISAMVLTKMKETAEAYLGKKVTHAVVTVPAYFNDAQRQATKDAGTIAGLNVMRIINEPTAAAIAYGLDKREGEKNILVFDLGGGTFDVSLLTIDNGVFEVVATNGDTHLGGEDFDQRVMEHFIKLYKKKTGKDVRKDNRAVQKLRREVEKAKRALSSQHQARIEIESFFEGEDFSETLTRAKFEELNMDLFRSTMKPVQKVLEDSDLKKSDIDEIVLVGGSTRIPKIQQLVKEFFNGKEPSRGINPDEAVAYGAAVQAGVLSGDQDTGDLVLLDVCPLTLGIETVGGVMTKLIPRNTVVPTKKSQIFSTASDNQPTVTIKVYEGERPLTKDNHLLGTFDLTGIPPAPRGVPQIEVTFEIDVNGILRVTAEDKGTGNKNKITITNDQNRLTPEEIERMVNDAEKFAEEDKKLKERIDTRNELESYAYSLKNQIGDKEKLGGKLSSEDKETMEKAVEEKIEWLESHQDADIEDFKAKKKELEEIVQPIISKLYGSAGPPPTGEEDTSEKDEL

Columns and labels:
[1] = target: wildtype Chinese hamster BiP, unmodified (BiP^WT) (Chinese hamster (Cricetulus griseus)) (UniProt G3I8R9); test: SEC; analytical SEC, BiP at 50 µM in HKM buffer, room temperature, with 1.5 mM ATP; self-association; both purified
[2] = target: wildtype Chinese hamster BiP, unmodified (BiP^WT) (Chinese hamster (Cricetulus griseus)) (UniProt G3I8R9); test: as above; remark: listed apart in the source
[3] = target: wildtype Chinese hamster BiP, unmodified (BiP^WT) (Chinese hamster (Cricetulus griseus)) (UniProt G3I8R9); test: condition: only with 1.5 mM ATP and GST-J^QPD instead of GST-J^WT; SEC; analytical SEC, BiP at 50 µM in HKM buffer, room temperature, with 1.5 mM ATP and mutant GST-J^QPD; self-association; both purified
[4] = target: AMPylated wildtype Chinese hamster BiP (BiP^WT-AMP) (Chinese hamster (Cricetulus griseus)) (UniProt G3I8R9); test: SEC; analytical SEC, BiP at 50 µM in HKM buffer, room temperature, with 1.5 mM ATP; self-association; both purified
[5] = target: AMPylated wildtype Chinese hamster BiP (BiP^WT-AMP) (Chinese hamster (Cricetulus griseus)) (UniProt G3I8R9); test: SEC; analytical SEC, BiP at 50 µM in HKM buffer, room temperature, with 1.5 mM ATP and GST-J^WT (1.25-10 µM); J domain-mediated BiP oligomerization; both purified
[6] = target: AMPylated wildtype Chinese hamster BiP (BiP^WT-AMP) (Chinese hamster (Cricetulus griseus)) (UniProt G3I8R9); test: SEC; analytical SEC (SEC-3 HPLC column), BiP at 50 µM in HKM buffer, room temperature, no added nucleotide or 1.5 mM ADP; self-association (monomer, dimer, trimer, HMW oligomers); both purified

For “wildtype Chinese hamster BiP, unmodified (BiP^WT) (from UniProt G3I8R9 19-654)”, the binding [1] was “binds weakly”, the binding [2] was “no binding (condition: with 1.5 mM ATP)” and the binding [3] was “no binding”.
For “AMPylated wildtype Chinese hamster BiP (BiP^WT-AMP) (from UniProt G3I8R9 19-654)”, the binding [4] was “no binding (condition: with 1.5 mM ATP)”, the binding [5] was “binds weakly” and the binding [6] was “binds weakly”.
